Measurements reported in PubChem BioAssay AID493246 (Drosophila RNAi Screening Center, 2011)

Test: 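Genes fly cells need to grow and stay alive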 (primary screen)
System: Drosophila Kc and S2R+ cells
Reagent: long dsRNA against Drosophila genes
Measured: 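Raw, unnormalised count of remaining cells in each well; per-plate z-scores of cell number underlie the calls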
Scale: Kc cell number and S2R+ cell number: higher = more cells remaining
Active means: 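Active when the per-plate z-score of cell number is 3 or more in the direction of fewer cells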
The deposit covers about 21,000 reagents; this is an unselected part of those that have a named target and a result. Of all reagents, 429 (2%) are marked active. 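Values are raw and not normalised between plates; calls rest on per-plate z-scores that were not deposited.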 Reagents against one gene are numbered here. Names joined by + are all predicted targets of the reagent. Reagent sequences are not shown. Not stated in the record: the amount of reagent, the time to read-out.

Cht2 scored Kc cell number, rep 1 = 1.42e6; Kc cell number, rep 2 = 1.47e6; S2R+ cell number, rep 1 = 1.15e6; S2R+ cell number, rep 2 = 1.23e6; inactive.
Nup44A gave Kc cell number, rep 1 = 1.28e6; Kc cell number, rep 2 = 1.32e6; S2R+ cell number, rep 1 = 9.81e5; S2R+ cell number, rep 2 = 1.08e6; inactive.
CG8399 scored Kc cell number, rep 1 = 1.34e6; Kc cell number, rep 2 = 1.42e6; S2R+ cell number, rep 1 = 1.11e6; S2R+ cell number, rep 2 = 1.12e6; inactive.
CG18787 + CG18789 showed Kc cell number, rep 1 = 1.54e6; Kc cell number, rep 2 = 1.65e6; S2R+ cell number, rep 1 = 1.19e6; S2R+ cell number, rep 2 = 1.41e6; inactive.
CG4709 gave Kc cell number, rep 1 = 1.32e6; Kc cell number, rep 2 = 1.42e6; S2R+ cell number, rep 1 = 1.08e6; S2R+ cell number, rep 2 = 1.21e6; inactive.
With knock-down of DCTN6-p27, the screen gave Kc cell number, rep 1 = 1.37e6; Kc cell number, rep 2 = 1.48e6; S2R+ cell number, rep 1 = 9.88e5; S2R+ cell number, rep 2 = 1.09e6; inactive.
Knock-down of EAChm resulted in: Kc cell number, rep 1 = 1.35e6; Kc cell number, rep 2 = 1.40e6; S2R+ cell number, rep 1 = 1.28e6; S2R+ cell number, rep 2 = 1.34e6; inactive.
Silencing of Toll-9 came out at: Kc cell number, rep 1 = 1.51e6; Kc cell number, rep 2 = 1.83e6; S2R+ cell number, rep 1 = 1.09e6; S2R+ cell number, rep 2 = 1.19e6; inactive.
Silencing of CG31200 gave: Kc cell number, rep 1 = 1.26e6; Kc cell number, rep 2 = 1.27e6; S2R+ cell number, rep 1 = 1.04e6; S2R+ cell number, rep 2 = 1.14e6; inactive.
Silencing of CG42506 (retired record) + CG43759 #1 resulted in: Kc cell number, rep 1 = 1.81e6; Kc cell number, rep 2 = 1.85e6; S2R+ cell number, rep 1 = 1.14e6; S2R+ cell number, rep 2 = 1.19e6; inactive.
With knock-down of CG42506 (retired record) + CG43759 #2, the screen gave Kc cell number, rep 1 = 1.46e6; Kc cell number, rep 2 = 1.45e6; S2R+ cell number, rep 1 = 9.72e5; S2R+ cell number, rep 2 = 1.10e6; inactive.
With knock-down of CG30413, the record shows Kc cell number, rep 1 = 1.42e6; Kc cell number, rep 2 = 1.50e6; S2R+ cell number, rep 1 = 9.49e5; S2R+ cell number, rep 2 = 1.07e6; inactive.

Laid out differently: entries from further up.
| Gene | reagent | Kc cell number, rep 1 | Kc cell number, rep 2 | S2R+ cell number, rep 1 | S2R+ cell number, rep 2 | outcome |
| --- | --- | --- | --- | --- | --- | --- |
| Nup44A | 1 | 1.28e6 | 1.32e6 | 9.81e5 | 1.08e6 | inactive |
| CG8399 | 1 | 1.34e6 | 1.42e6 | 1.11e6 | 1.12e6 | inactive |
